Reference: paper PMC6588254
Results are given in words; binding and its absence hold for the method and conditions named. In cells and extracts the contact can be indirect. Some binding calls cover weakened binding; strength is not graded here. For some of these results: Tags and fused reporters may be left off the sequences shown.

The chains behind the UniProt entries cited, without tags or fusion partners. Where a name states a change or a piece, a line headed by the entry shows the natural chain unless it says otherwise. A line that says so, or that is headed by a name, gives the form on record, which may keep a tag or linker. Residues count along the entry.
UniProt P03204: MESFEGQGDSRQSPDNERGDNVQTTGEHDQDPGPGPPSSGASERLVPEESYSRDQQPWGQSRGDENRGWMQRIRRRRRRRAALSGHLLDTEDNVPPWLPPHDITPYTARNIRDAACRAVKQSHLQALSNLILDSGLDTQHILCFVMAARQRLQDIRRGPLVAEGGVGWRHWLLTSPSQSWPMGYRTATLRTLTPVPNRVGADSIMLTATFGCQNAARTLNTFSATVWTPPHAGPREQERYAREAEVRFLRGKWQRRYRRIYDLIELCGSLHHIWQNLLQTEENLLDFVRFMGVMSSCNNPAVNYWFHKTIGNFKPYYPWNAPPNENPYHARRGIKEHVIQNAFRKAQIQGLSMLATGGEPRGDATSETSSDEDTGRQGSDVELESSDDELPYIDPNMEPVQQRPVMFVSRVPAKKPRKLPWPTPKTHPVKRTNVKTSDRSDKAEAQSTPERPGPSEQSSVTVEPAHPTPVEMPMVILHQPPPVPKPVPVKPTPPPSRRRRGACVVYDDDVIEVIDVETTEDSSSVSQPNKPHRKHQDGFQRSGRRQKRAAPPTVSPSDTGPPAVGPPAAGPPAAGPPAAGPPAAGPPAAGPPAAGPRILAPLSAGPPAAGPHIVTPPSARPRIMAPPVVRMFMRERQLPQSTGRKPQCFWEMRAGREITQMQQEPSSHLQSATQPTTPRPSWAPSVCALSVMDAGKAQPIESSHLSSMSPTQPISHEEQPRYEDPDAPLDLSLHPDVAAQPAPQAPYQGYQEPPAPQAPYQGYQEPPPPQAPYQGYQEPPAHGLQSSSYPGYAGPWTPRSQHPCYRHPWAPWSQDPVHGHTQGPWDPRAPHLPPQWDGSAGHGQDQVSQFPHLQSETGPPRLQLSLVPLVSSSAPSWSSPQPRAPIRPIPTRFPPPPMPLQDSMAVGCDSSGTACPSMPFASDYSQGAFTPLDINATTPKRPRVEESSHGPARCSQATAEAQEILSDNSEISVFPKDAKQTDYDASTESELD
Myc-tagged EBNA3C 1-365aa: residues 1-365 of P03204
Myc-tagged EBNA3C 100-200aa: residues 100-200 of P03204

B1: METTL14 (endogenous) (protein, UniProt Q9HCE5 1-456)
chain: MDSRLQEIRERQKLRRQLLAQQLGAESADSIGAVLNSKDEQREIAETRETCRASYDTSAPNAKRKYLDEGETDEDKMEEYKDELEMQQDEENLPYEEEIYKDSSTFLKGTQSLNPHNDYCQHFVDTGHRPQNFIRDVGLADRFEEYPKLRELIRLKDELIAKSNTPPMYLQADIEAFDIRELTPKFDVILLEPPLEEYYRETGITANEKCWTWDDIMKLEIDEIAAPRSFIFLWCGSGEGLDLGRVCLRKWGYRRCEDICWIKTNKNNPGKTKTLDPKAVFQRTKEHCLMGIKGTVKRSTDGDFIHANVDIDLIITEEPEIGNIEKPVEIFHIIEHFCLGRRRLHLFGRDSTIRPGWLTVGPTLTNSNYNAETYASYFSAPNSYLTGCTEEIERLRPKSPPPKSKSDRGGGAPRGGGRGGTSAGRGRERNRSNFRGERGGFRGGRGGAHRGGFPPR
B2: Flag-tagged METTL14 (protein, UniProt Q9HCE5 1-456)
chain: B1 chain

Key:
[1] = target: EBNA3C (EBV latent antigen, as expressed in B-cell lines) (Epstein-Barr virus (endogenous in EBV-transformed LcLs; stably expressed in BJAB7)) (UniProt P03204); assay: co-IP; 30 million BJAB, BJAB7 and LcL cells lysed with RIPA buffer; IP with EBNA3C antibody or with METTL14 antibody, protein A/G Sepharose, 4°C overnight; western blot of endogenous EBNA3C and METTL14
[2] = target: Myc-tagged EBNA3C 1-365aa (Epstein-Barr virus) (UniProt P03204); assay: co-IP; HEK293 cells co-transfected with Myc-tagged EBNA3C (full length or regions) and Flag-tagged METTL14, lysed with RIPA buffer 48 hours later; IP with Myc or Flag antibody (Myc antibody only for the 1-100, 100-200, 200-300 regions), protein A/G Sepharose, 4°C overnight; western blot
[3] = target: Myc-tagged EBNA3C 100-200aa (Epstein-Barr virus) (UniProt P03204); assay: as above
[4] = target: Myc-tagged full-length EBNA3C (1-992aa) (Epstein-Barr virus) (UniProt P03204); assay: as above

Row | Binder | binding [1] | binding [2] | binding [3] | binding [4]
1 | B1 | binds | – | – | –
2 | B2 | – | binds | binds | binds
